# PubChem BioAssay AID2685 (National Center for Advancing Translational Sciences (NCATS), 2010)
# The list shows a part of the results. These are further read-outs of the screen, such as a control signal, another cell line or another target. No call is given for them. Most of these compounds were active or inconclusive in the main read-out, so they are no random draw. Words in brackets tell the shape of the fitted curve; partial curves, single points and poor fits give uncertain potencies.
# Experiment: qHTS Assay for Lipid Storage Modulators in Drosophila S3 Cells;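 for cell number change: cells counted by Cell Tracker Red CMTPX staining in the red channel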
# Settings: BODIPY lipid droplet fluorescence, 18-24 h; for cell number change: measured here: cell count max response, cells fed with added oleic acid
# Outline: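 Drosophila S3 cells got compounds at several concentrations plus oleic acid (400 uM solution). Laser-scanning cytometry with 488 nm excitation read lipid droplets at 500-530 nm and cells at 575-640 nm. Percent activity was relative to 20 uM Triacsin C.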
# [1] = measured here: lipid fluorescence (Fed channel) AC50, cells fed with added oleic acid
# [2] = measured here: cell number channel AC50, cells fed with added oleic acid
SMILES,cell number change [%],AC50 [1],AC50 [2]
Cc1ccc(NC(=O)CSc2nnc(-c3ccccn3)n2N)cc1F,15,"0.164 µM [rising, full curve]",
COC(=O)N[C@@H]1C[C@H]2[C@@H]3CC[C@H]4C[C@@H](OC)CC[C@]4(C)[C@H]3CC[C@@]12C,-31.3,,"25.9 µM [falling, single point]"
Cn1c(=O)c2c(nc(NCCNC(=O)c3ccco3)n2Cc2ccccc2)n(C)c1=O,10,"1.16 µM [rising, single point]",
O=C(Nc1ccc2c(c1)OCCO2)C1CCN(C(=O)c2ccc(Br)cc2)CC1,-25.2,"6.51 µM [falling, partial curve, poor fit]","2.31 µM [falling, partial curve]"
CCc1noc(C)c1C(=O)N(CC)c1nc2c(C)cccc2s1,-0.679,"18.4 µM [falling, partial curve, poor fit]",
CCOc1ccccc1CN1CCN(Cc2cn(C)nc2-c2ccccc2)CC1CCO (stereo not drawn),6.09,"6.51 µM [falling, single point]",
COc1ccc(OCc2cc(C(=O)NCC3(C)COC3)no2)c(Cl)c1,,"29.1 µM [rising, single point]",
O=C(NC1CCCC1)C(c1ccncc1)N(CCCN1CCOCC1)C(=O)c1ccc(-c2ccccc2)[nH]1 (stereo not drawn),42.3,,
CCC(=O)Nc1ccc(-c2csc(NNC(C)=O)n2)cc1,7.65,"5.8 µM [falling, partial curve]",
COc1cc(-c2nnc(SCC(=O)c3ccccc3)o2)cc(OC)c1OC,-2.01,"7.31 µM [rising, partial curve]",
O=C(Nc1nnc(-c2cccnc2)o1)c1cccc(Cl)c1,27.4,,"3.66 µM [rising, single point]"
CCN1C(=O)CC(NNC(=O)c2ccccc2)C1=O (stereo not drawn),26.9,"13 µM [rising, partial curve, poor fit]",
CC(C)CNC(=O)c1cc(=O)[nH]c2ccc(S(=O)(=O)Nc3ccc(F)cc3)cc12,0.42,,
C=CCn1c(=O)n(CCOC)c(=O)c2sc3ccccc3c21,63.5,,"29.1 µM [rising, single point]"
CC(C)c1ccccc1-n1c(SCC(=O)c2ccc3c(c2)NC(=O)CO3)nc2ccccc2c1=O,-5.41,"0.58 µM [rising, partial curve, poor fit]","0.82 µM [rising, single point]"
COc1ccc(NC(=O)CCC(=O)Nc2nnc(C(F)(F)F)s2)c(OC)c1,-44.4,,"16.4 µM [falling, partial curve, poor fit]"
CCOC(=O)c1cc(C)sc1NC(=O)c1ccc(Cl)s1,0.232,"0.517 µM [rising, single point]","0.651 µM [rising, partial curve]"
CCCC(=O)NCc1ccccc1Cl,-3.82,,"0.00461 µM [falling, full curve, poor fit]"
COc1cccc(-n2nnc3c(=O)n(CC(=O)N4CCC(Cc5ccccc5)CC4)cnc32)c1,-19.7,,
N#Cc1ccc(C(=O)Nc2nnc(-c3cccs3)o2)cc1,-24.2,"20.6 µM [falling, single point]",

# Copied from the list:
# COc1ccc(OCc2cc(C(=O)NCC3(C)COC3)no2)c(Cl)c1 – AC50 [1]: 29.1 µM [rising, single point]
# CCOC(=O)c1cc(C)sc1NC(=O)c1ccc(Cl)s1 – cell number change [%]: 0.232

# (list continues)

SMILES,cell number change [%],AC50 [1],AC50 [2]
CN(C)CCNc1oc(-c2ccccc2Cl)nc1S(=O)(=O)c1ccccc1,14.9,"3.26 µM [rising, full curve]",
CCCCn1c(C(C)NC(=O)c2cccs2)nc2ccccc21 (stereo not drawn),89.6,"2.06 µM [rising, partial curve]","9.2 µM [rising, partial curve]"
O=C(CN1c2ccccc2Sc2ccccc21)NNC(=O)Nc1ccc(Cl)c(Cl)c1,-39.7,,"32.6 µM [falling, single point]"
Cn1c(=O)c2c(nc(Br)n2C)n(C)c1=O,24,"11.6 µM [rising, partial curve]",
COc1ccc(/C=C(\NC(=O)c2ccccc2)C(=O)N2CCC(C)CC2)cc1,-2.66,"10.3 µM [falling, single point]",
CCn1c(=O)cc(O)c2c(=O)n(C)c(=O)n(C)c21,26.4,"29.1 µM [rising, single point]",
Nc1nc(SCC(=O)Nc2ccc3c(c2)CCC3)n[nH]1,16,"1.03 µM [rising, full curve, poor fit]",
O=C(CCNC(=O)c1ccco1)Nc1ccc(F)c(Cl)c1,2.82,,
Cc1ccc(NC(=O)C(OC(=O)c2ccccc2Cl)c2ccccc2)cc1Cl (stereo not drawn),19.1,"3.26 µM [rising, partial curve]",
COc1cc2c(cc1OC)C(c1ccccc1Cl)N(C)CC2 (stereo not drawn),14.6,"29.1 µM [rising, single point]",
CCN(CC)CCOC(=O)c1ccc(N/C=C(/C#N)c2nc(-c3ccc4c(c3)OCO4)cs2)cc1,-12.9,,
CCc1ccc(NC(=O)C(=O)NCC2CCCN2S(=O)(=O)c2ccccc2)cc1 (stereo not drawn),25,"25.9 µM [falling, partial curve, poor fit]",
COc1cc(/C=N/n2cnnc2)ccc1OCCSc1ccc(C)cc1,-27.6,"16.4 µM [falling, single point]",
S=c1[nH]cnc2scc(-c3ccc(Br)cc3)c12,-13.9,"0.116 µM [falling, full curve, poor fit]",
Cc1ccc2nc(N3C(=O)C(O)=C(C(=O)c4ccc(C)o4)C3c3ccco3)sc2c1 (stereo not drawn),-30.2,"3.26 µM [falling, partial curve]","1.46 µM [falling, full curve, poor fit]"
CCOC(=O)C(NS(=O)(=O)c1ccccc1)(C(F)(F)F)P(=O)(OCC(C)C)OCC(C)C (stereo not drawn),-105,"0.58 µM [falling, full curve, poor fit]","4.61 µM [falling, partial curve]"
Cc1cc(=O)[nH]c(N/N=C/c2ccccc2C(F)(F)F)n1,36.3,,"18.4 µM [rising, single point]"
COc1ccc(CCNC(=O)CSc2nc3[nH]ncc3c(=O)n2-c2ccc(Cl)cc2Cl)cc1OC,-25.4,"29.1 µM [falling, single point]",
O=C(NC1CCCCC1)C(c1ccc(O)cc1)N(CC1CCCO1)C(=O)C1COc2ccccc2O1 (stereo not drawn),3.42,,
CCOC(=O)C(NCCOC)(NC(C)=O)C(F)(F)F (stereo not drawn),-3.2,"1.46 µM [falling, full curve]",

SMILES,cell number change [%],AC50 [1],AC50 [2]
CC1CCCCN1S(=O)(=O)c1ccc(S(=O)(=O)N(CC(=O)Nc2ccccc2)Cc2cccs2)cc1 (stereo not drawn),0.963,"29.1 µM [rising, single point]",
O=C(Nc1ccnn1C1CCN(Cc2cccc(OCCO)c2)CC1)C1CC1,-2.93,"25.9 µM [rising, single point]",
COc1ccc(-n2c(=O)[nH]cc(C(=O)Nc3ccc(NC(C)=O)cc3)c2=O)cc1,-9.4,"1.64 µM [falling, partial curve]",
CSc1nc(-c2ccco2)nn1S(C)(=O)=O,-7.01,"5.8 µM [falling, partial curve]",
CCOC(=O)Nc1c(O)ccc2oc(C)c(-c3ccccc3)c12,-8.75,"4.11 µM [rising, full curve, poor fit]",
CCNc1nc(NCC)nc(N/N=C/c2ccc(Br)cc2)n1,,,"2.59 µM [rising, partial curve]"
O=C(CCC(=O)NC1CCCCCCC1)Nc1nnc(C(F)(F)F)s1,17.4,"0.0058 µM [falling, full curve, poor fit]",
CCOc1ccc(N2C(=O)CN=C2Nc2ccccc2F)cc1,-12.3,,
CCn1c2ccccc2c2nnc(SCC(=O)Nc3ncccn3)nc21,-8.24,"0.206 µM [rising, full curve, poor fit]",
O=C(c1c[nH]c(C(=O)C(Cl)(Cl)Cl)c1)c1ccccc1Cl,,"7.31 µM [falling, partial curve]",
Cc1cc(/C=C(\C#N)C(=O)NCc2ccco2)c(C)n1C1CCCC1,40.7,,"29.1 µM [rising, single point]"
CCOc1ccccc1N(C)C(=O)c1ccc2c(=O)n3c(nc2c1)CCCCC3,-68.3,"1.16 µM [falling, full curve]","5.17 µM [falling, partial curve]"
CCOC(=O)C(C)On1c(-n2nc(C)cc2C)nc2ccccc2c1=O (stereo not drawn),-3.6,,"6.51 µM [rising, single point]"
CCC(C)(C)NC(=O)C(c1cccc(OC)c1OC)N(Cc1ccccc1)C(=O)CCC(=O)Nc1cc(C)on1 (stereo not drawn),4.35,,
Clc1cccc(-c2nc(NCc3cccnc3)c3ccccc3n2)c1,115,"29.1 µM [rising, partial curve]","20.6 µM [rising, single point]"
Cc1nnsc1C(=O)NNc1ccc(C(C)C)cc1,25.9,"2.31 µM [rising, partial curve]","0.259 µM [rising, full curve, poor fit]"
C/C=C/Cn1c(SCCCc2ccccc2)nc2c1c(=O)[nH]c(=O)n2C,10.8,"4.61 µM [rising, full curve]",
NS(=O)(=O)c1cccc(NC(=O)CCSc2ccccc2Cl)c1,16.5,"2.06 µM [rising, partial curve]",
Cc1ccc(C(=O)N(C)CC(=O)Nc2ccc(N3CCOCC3)cc2)s1,50,,"20.6 µM [rising, single point]"
O=C(Cn1c(NCCO)nc2ccccc21)N1CCN(Cc2ccccc2)CC1,,"0.13 µM [rising, full curve]","0.164 µM [rising, full curve]"
